Results on 1 molecule are retold here after paper PMC11306256.

The chains behind the UniProt entries cited, without tags or fusion partners. Where a name states a change or a piece, a line headed by the entry shows the natural chain unless it says otherwise.
UniProt Q6IP62: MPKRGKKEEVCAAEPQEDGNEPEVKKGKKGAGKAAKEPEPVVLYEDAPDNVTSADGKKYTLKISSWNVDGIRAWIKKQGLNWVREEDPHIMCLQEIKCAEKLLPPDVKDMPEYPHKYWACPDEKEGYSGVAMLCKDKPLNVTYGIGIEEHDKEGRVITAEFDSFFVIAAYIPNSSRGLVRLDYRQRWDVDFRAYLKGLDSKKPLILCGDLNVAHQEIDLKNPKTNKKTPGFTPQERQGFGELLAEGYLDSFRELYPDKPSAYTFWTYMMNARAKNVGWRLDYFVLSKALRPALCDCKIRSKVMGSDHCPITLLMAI

No constants are given. Whether binding was seen depends on the method and setting. In cells and extracts the contact can be indirect. For some assays here: A result given as binding can be weak or reduced; the word gives no strength.

Experiment [1] deals with GST-APE1-ΔNT34 (Xenopus APE1 lacking the N-terminal 34 amino acids) (Xenopus laevis). Put plainly: pull-down; 10 μg GST or GST-tagged protein added to 50 μL HSS diluted with 150 μL Interaction buffer (100 mM NaCl, 5 mM MgCl2, 10% glycerol, 0.1% Nonidet P-40, 20 mM Tris-HCl pH 8.0), 4 °C; glutathione beads; immunoblotting of bead-bound fraction; only the target purified.
The target of experiment [2] is GST-tagged recombinant Xenopus APE1, wild type (Xenopus laevis) (UniProt Q6IP62). The experiment is described as above.

B1: endogenous Xenopus Mre11 (protein, UniProt Q9W6K1 1-711)
chain: MSSSSSSLDDEDTFKILVATDIHLGFMEKDAVRGNDSFVAFDEILRLAQDNEVDFLLLGGDLFHDNKPSRRTLHICLEQLRKYCMGDRPIEFEVLSDQSVNFGYSKFPWVNYQDNNLNISLPVFSVHGNHDDPTGADALCALDILSSAGLVNHFGRATSVEKIDISPVLLQKGHSKIALYGLGSIPDERLYRMFVNKQVMMLRPREDESSWFNLFVIHQNRSKHGPTNYIPEQFLDEFLDLVIWGHEHECKIAPTRNEQQLFYVSQPGSSVATSLSPGEAEKKHVGLLRIKGKKMNMQKIPLQTVRQFFIEDLVLSDYPDIFNPDNPRVTQEIETFCIEKVEAMLDTAERERLGNPRQPDKPLIRLRVDYTGGFEPFNTLRFSQKFVDRTANPKDIIHFFRHKEQKDKKDSITINFGKIDSKPLLEGTTLRVEDLVKEYFKTAEKNVQLSLLTERGMGEAVQEFVDKEEKDALEELVKFQLEKTQRFLKERHIDAEEEKIDEEVRKFRETRKTNTNEEDEEVREAIQRARTHRSQAPDVEMSDEDDDALLRKVSLSDDEDVRASMPARGRGRGRARGGRGQSTTTRGTSRRGRGSASADQPSSGRATKATGKNMSILDAFKPSSRQPTARNVAKKTYSEDIEDDDSDLEEVSFTPSSVIESRRTSSTSTSYSRKSTQPQSQATKAHFFDDDDDEEDFDPFKKSGPSRRGRR
Regarding B1, the binding result was “no binding (tested: 10 μg GST-tagged protein)” in experiment [1] and “binds” in experiment [2].
